Data on 1 substance can be found in paper PMC6233179.

The chains behind the UniProt entries cited, without tags or fusion partners.
UniProt Q07936: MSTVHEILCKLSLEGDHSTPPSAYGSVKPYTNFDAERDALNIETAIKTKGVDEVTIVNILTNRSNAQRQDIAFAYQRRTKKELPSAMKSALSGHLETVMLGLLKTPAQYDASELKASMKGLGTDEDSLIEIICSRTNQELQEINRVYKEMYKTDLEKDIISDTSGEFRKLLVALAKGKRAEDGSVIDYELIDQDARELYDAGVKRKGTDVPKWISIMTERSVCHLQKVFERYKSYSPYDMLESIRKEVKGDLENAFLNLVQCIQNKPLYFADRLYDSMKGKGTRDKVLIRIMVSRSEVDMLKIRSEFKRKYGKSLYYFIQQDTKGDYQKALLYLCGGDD

In the test the target is T1, α1-microglobulin (native human AM protein) (human) (UniProt P02760).
T1 sequence: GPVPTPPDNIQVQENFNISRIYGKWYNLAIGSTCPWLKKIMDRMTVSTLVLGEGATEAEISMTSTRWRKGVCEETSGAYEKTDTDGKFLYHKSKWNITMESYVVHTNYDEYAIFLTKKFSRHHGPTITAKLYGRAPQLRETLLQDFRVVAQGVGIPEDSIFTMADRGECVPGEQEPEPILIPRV
Briefly: co-IP; immunocoprecipitation to confirm the candidates of the shotgun proteomics in CFBs (Supplementary Fig. S5a); details not shown; only the target purified.

No constants are given. Whether binding was seen depends on the method and setting. Binding seen in cells or lysates may run through a third protein. Some entries that bind do so weakly or less than the wild type.

annexin A2 (from UniProt Q07936 1-339): the binding result is “binds”.
